# Measured values reported in article PMC7641331, “Ctf18-RFC and DNA Pol ϵ form a stable leading strand polymerase/clamp loader complex required for normal and perturbed DNA replication” (Nucleic Acids Research, 2019).
# By UniProt entry, the sequences of proteins in these tests, tags left out. Where a name states a change or a piece, a line headed by the entry shows the natural chain unless it says otherwise.
# UniProt P49956: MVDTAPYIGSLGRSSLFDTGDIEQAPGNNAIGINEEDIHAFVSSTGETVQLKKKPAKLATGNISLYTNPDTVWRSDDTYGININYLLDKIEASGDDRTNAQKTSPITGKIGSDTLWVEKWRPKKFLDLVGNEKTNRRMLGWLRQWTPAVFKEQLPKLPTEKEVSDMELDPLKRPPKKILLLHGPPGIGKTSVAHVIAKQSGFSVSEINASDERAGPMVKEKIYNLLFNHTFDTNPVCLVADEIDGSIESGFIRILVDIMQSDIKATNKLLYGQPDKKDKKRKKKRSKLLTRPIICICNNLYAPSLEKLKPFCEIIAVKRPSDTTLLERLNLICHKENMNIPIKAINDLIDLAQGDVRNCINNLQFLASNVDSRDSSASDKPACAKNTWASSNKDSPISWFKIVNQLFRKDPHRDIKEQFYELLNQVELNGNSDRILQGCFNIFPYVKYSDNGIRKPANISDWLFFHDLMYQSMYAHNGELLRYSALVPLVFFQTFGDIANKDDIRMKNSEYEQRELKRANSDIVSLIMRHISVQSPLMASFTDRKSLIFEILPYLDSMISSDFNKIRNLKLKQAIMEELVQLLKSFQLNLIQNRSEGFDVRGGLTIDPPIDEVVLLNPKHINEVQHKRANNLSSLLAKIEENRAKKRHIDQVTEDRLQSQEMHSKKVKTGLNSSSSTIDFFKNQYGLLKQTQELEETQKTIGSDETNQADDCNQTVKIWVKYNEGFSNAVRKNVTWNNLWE
# B1: Dcc1 (chain of the recombinant Ctf18-1-8 module) (natural protein, S. cerevisiae)
# chain: MSINLHSAPEYDPSYKLIQLTPELLDIIQDPVQNHQLRFKSLDKDKSEVVLCSHDKTWVLKQRKHSNTVLLMREFVPEQPITFDETLLFGLSKPYMDVVGFAKTESEFETRETHGELNLNSVPIYNGELDFSDKIMKRSSTKVIGTLEELLENSPCSALEGISKWHKIGGSVKDGVLCILSQDFLFKALHVLLMSAMAESLDLQHLNVEDTHHAVGKDIEDEFNPYTREIIETVLNKFAVQEQEAENNTWRLRIPFIAQWYGIQALRKYVSGISMPIDEFLIKWKSLFPPFFPCDIDIDMLRGYHFKPTDKTVQYIAKSTLPMDPKERFKVLFRLQSQWDLEDIKPLIEELNSRGMKIDSFIMKYARRKRLGKKTVVTSR
# notes: Dcc1, S. cerevisiae; The Dcc1 chain of m2, written alone for the pairs that touch in the structures; also called Dcc1WH3 (its last winged helix domain)
# B2: Ctf8 (chain of the recombinant Ctf18-1-8 module) (protein, UniProt P38877 1-133)
# chain: MPSVDIDASQWQKLTQSREKQTTVITPLGMMMLEIQGELELPKDFASLARRDSPNEGRFSEQDGETLIRFGSLQIDGERATLFVGKKQRLLGKVTKLDVPMGIMHFNSKDNKVELVDVMKYKVIFKDRPLPIM
# Tests used:
# [1] = target: T1, Pol2CAT, the complete catalytic domain of Pol2 (residues 1–1192), exonuclease-deficient (D290A/E292A) (S. cerevisiae) (UniProt P21951); test: native gel or EMSA; supershift of Pol2CAT-DNA: 50 nM P1P2, 125 nM Pol2CAT and 125, 250 and 500 nM Ctf18-1-8 variant; 25 mM HEPES pH 7.5, 60 mM KCl, 10% glycerol, 1 mM TCEP; 20 min on ice; 6% Tris-glycine gel at 4°C; both purified
# T1 sequence: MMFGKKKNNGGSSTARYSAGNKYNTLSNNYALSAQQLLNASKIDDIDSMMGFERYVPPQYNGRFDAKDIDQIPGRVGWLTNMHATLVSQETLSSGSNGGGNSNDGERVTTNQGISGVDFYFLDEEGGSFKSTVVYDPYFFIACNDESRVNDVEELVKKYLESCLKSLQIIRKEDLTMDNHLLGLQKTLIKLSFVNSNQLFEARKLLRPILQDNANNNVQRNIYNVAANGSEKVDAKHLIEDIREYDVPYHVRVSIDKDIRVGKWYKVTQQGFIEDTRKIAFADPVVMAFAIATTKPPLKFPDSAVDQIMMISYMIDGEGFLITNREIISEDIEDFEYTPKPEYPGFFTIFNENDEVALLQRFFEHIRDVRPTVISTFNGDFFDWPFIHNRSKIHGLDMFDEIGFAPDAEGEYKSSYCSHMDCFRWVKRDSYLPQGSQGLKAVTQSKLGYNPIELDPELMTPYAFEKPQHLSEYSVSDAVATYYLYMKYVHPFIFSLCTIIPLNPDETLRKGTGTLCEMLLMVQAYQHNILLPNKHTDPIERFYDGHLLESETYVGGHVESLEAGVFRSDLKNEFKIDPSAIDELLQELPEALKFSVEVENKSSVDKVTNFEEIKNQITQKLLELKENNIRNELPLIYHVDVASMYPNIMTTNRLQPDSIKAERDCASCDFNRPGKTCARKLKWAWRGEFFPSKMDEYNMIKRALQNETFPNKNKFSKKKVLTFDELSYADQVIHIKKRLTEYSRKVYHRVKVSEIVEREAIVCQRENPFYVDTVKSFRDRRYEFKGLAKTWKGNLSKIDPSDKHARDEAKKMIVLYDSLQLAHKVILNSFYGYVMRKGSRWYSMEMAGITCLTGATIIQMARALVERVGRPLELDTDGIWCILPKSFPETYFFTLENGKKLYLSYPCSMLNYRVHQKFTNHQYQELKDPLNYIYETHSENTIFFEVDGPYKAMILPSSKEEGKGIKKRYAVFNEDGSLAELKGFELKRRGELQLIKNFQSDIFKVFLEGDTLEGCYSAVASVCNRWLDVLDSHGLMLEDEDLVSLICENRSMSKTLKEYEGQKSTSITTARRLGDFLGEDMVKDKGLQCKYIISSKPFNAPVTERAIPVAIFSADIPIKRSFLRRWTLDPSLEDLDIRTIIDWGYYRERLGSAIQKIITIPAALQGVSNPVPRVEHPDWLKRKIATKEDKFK
# [2] = target: T1, Pol2CAT, the complete catalytic domain of Pol2 (residues 1–1192), exonuclease-deficient (D290A/E292A) (S. cerevisiae); test: cryo-EM structure; 2 μM Ctf18-1-8, Pol2CAT and P1P2* DNA in 20 mM HEPES pH 7.5, 160 mM NaCl, 1 mM TCEP; GraFix sucrose gradient with 0.15% glutaraldehyde; only DNA-free classes refined (Class 1 4.2 Å, Class 2 5.8 Å); both purified
# [3] = target: Ctf18 (C-terminus, chain of the recombinant Ctf18-1-8 module) (S. cerevisiae) (UniProt P49956); test: as above
# [4] = target: Pol2(1–528), truncated construct of the Pol ϵ catalytic domain (S. cerevisiae) (UniProt P21951); test: crystal structure; Pol2(1–528) and Ctf18-1-8 mixed 1:1, purified by SEC, crystallised at 5 mg/ml in 0.2 M NaCl, 14% PEG 20 000, 0.1 M HEPES pH 7.0; new crystal form; both purified
molecule,measurement,setting,value
Ctf18-1-8 variant Dcc1-3A (Dcc1 K364A/R376A/R380A) (S. cerevisiae) (complex),binding,[1],binds
"Ctf18 (C-terminus, chain of the recombinant Ctf18-1-8 module) (from UniProt P49956) (domain or fragment)",binding,[2],binds
B1,binding,[3],binds
same,binding,[4],binds
B2,binding,[3],binds

# Results are given in words; binding and its absence hold for the method and conditions named. Binding calls can cover weak binding; strength is not graded here.
